# The list shows a part of the results. The main result of the screen is listed elsewhere. These columns were measured beside it and carry no call. The list favours compounds with an active or inconclusive main result. Potencies come from curve fits of mixed quality, noted in brackets.
# Assay: qHTS Assay for Lipid Storage Modulators in Drosophila S3 Cells;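 on cell number change: cells counted by Cell Tracker Red CMTPX staining in the red channel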
# Conditions: BODIPY lipid droplet fluorescence, 18-24 h; for cell number change: measured here: cell count max response, cells fed with added oleic acid
# Outline: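 Drosophila S3 cells loaded with oleic acid (400 uM, as added) and compounds at several concentrations; lipid droplets imaged by 488-nm laser-scanning cytometry, 500–530 nm intensity and object ratio to cell channel. Percent activity normalized to 20 uM Triacsin C.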
# [1] = measured here: lipid fluorescence (Fed channel) AC50, cells fed with added oleic acid
# [2] = measured here: cell number channel AC50, cells fed with added oleic acid
smiles,measurement,setting,value
COc1ccc(CNCCc2ccc(Cl)cc2Cl)cc1,cell number change,,7.87%
same,AC50,[1],"4.11 µM [rising, full curve]"
O=[N+]([O-])c1cc(Cl)c(Cl)cc1Cl,cell number change,,16.2%
same,AC50,[1],"1.16 µM [falling, single point]"
Cc1cccc(-n2c(O)c(/C=N/NC(=O)c3ccncc3)c(=O)[nH]c2=O)c1,AC50,[1],"0.58 µM [falling, full curve]"
O=C(C(=O)N1CCOCC1)c1cn(Cc2ccc(F)cc2)c2ccccc12,cell number change,,23.5%
COc1ccc(CN2CCN(c3ccccc3)CC2)c(C)c1C,cell number change,,-32.6%
same,AC50,[2],"29.1 µM [falling, single point]"
same,AC50,[1],"29.1 µM [falling, single point]"
COc1cc(OC)c(OC)cc1CNCCc1cccc(F)c1,cell number change,,11.1%
same,AC50,[1],"20.6 µM [rising, single point]"
CC(=O)c1cn(CCCOc2ccccc2)c2ccccc12,cell number change,,-24.8%
same,AC50,[1],"29.1 µM [falling, single point]"
CN(C)c1ccc(C=C2C(=O)NC(=O)NC2=O)cc1[N+](=O)[O-],cell number change,,-19.8%
same,AC50,[2],"0.00461 µM [falling, full curve, poor fit]"
same,AC50,[1],"0.00461 µM [falling, full curve, poor fit]"
O=C(CN1CCCCC1)c1ccc2c(c1)OCO2,cell number change,,-11%
same,AC50,[1],"4.11 µM [falling, single point]"
CCOC(=O)C1=C(N)OC2=C(C(=O)CCC2)C12C(=O)Nc1ccccc12 (centres undefined),cell number change,,-19.7%
same,AC50,[1],"0.00461 µM [rising, full curve, poor fit]"
Cn1cc(C=C2C(=O)NC(=O)NC2=O)c2ccccc21,cell number change,,142%
same,AC50,[2],"20.6 µM [rising, partial curve]"
CCCCn1c(O)c(C(CC)=Nc2cccc(C(=O)O)c2)c(=O)[nH]c1=O,AC50,[2],"4.61 µM [falling, single point]"
COc1cc(OC)c(OC)cc1CN1CCN(C(=O)Cc2ccccc2)CC1,cell number change,,2.64%
same,AC50,[1],"3.66 µM [rising, full curve]"
Cc1cc(C)cc(NC2=NCCCS2)c1,cell number change,,25.1%
same,AC50,[1],"29.1 µM [rising, single point]"
Cc1ccc(C2NC(=S)NC(c3ccc(C)cc3)C23C(=O)NC(=O)NC3=O)cc1 (centres undefined),cell number change,,-1.29%
same,AC50,[1],"18.4 µM [rising, single point]"
O=C1CN(O)C(c2ccccc2Cl)=c2cc(Br)ccc2=N1,cell number change,,28.3%
C[N+]1(C)C2CCC1CC(OC(=O)c1c[nH]c3ccccc13)C2 (centres undefined),cell number change,,-43.1%
same,AC50,[2],"0.259 µM [falling, full curve, poor fit]"
same,AC50,[1],"4.11 µM [falling, partial curve]"
CN(C)c1ccc(C(=O)c2ccc(N(C)C)cc2)cc1,cell number change,,-30.2%
same,AC50,[2],"18.4 µM [falling, partial curve, poor fit]"
CCOC(=O)C1=C(N)Oc2cc(C)oc(=O)c2C12C(=O)N1c3c(cccc32)C(C)CC1(C)C (centres undefined),cell number change,,-0.574%
same,AC50,[1],"29.1 µM [falling, single point]"
CC(=O)Nc1cc(C(=O)N2CCC3(CC2)OCCO3)ccc1Sc1ccc(F)cc1,cell number change,,18.2%
Clc1ccc(C[n+]2c(-c3ccccc3)cc(-c3ccccc3)cc2-c2ccccc2)cc1,cell number change,,-86.9%
same,AC50,[2],"5.8 µM [falling, partial curve]"
same,AC50,[1],"4.11 µM [falling, partial curve]"
O=C1C2(Cl)C3(Cl)C4(Cl)C(Cl)(Cl)C5(Cl)C3(Cl)C1(Cl)C5(Cl)C24Cl (centres undefined),cell number change,,-87.6%
same,AC50,[2],"4.61 µM [falling, single point]"
CN(C(=O)Oc1cccc2cccnc12)c1ccccc1,AC50,[1],"0.58 µM [rising, single point]"
N#C/C=C/C#N,cell number change,,-36.7%
same,AC50,[2],"29.1 µM [falling, single point]"
same,AC50,[1],"18.4 µM [rising, single point]"
CCOc1c(Cl)cc(CNCCc2c[nH]c3ccccc23)cc1OC,cell number change,,-33.3%
same,AC50,[2],"25.9 µM [falling, single point]"
same,AC50,[1],"20.6 µM [falling, single point]"
CC(Cc1cccs1)NCc1ccc(Cl)cc1 (centres undefined),cell number change,,48.6%
same,AC50,[2],"29.1 µM [rising, single point]"
same,AC50,[1],"29.1 µM [rising, single point]"
Cc1ccc(N2CCN(CCc3ccccc3)CC2)cc1,cell number change,,-41.6%
same,AC50,[2],"29.1 µM [falling, single point]"
same,AC50,[1],"0.116 µM [falling, full curve, poor fit]"
O=C1NC(=O)N(Cc2ccccc2)C(=O)/C1=C\C=C\c1ccco1,cell number change,,-36.8%
same,AC50,[2],"23.1 µM [falling, single point]"
CCN(CC)c1ccc(N=Cc2c(O)n(CCC3=CCCCC3)c(=O)[nH]c2=O)cc1,cell number change,,10.5%
same,AC50,[1],"0.517 µM [rising, full curve]"
COC(=O)c1ccc(N2CCN(C)CC2)c([N+](=O)[O-])c1,cell number change,,17.5%
COC(=O)C1=C(c2ccc(OCc3ccccc3)cc2)C[C@@H]2CC[C@H]1N2C(=O)NCc1cccc(C(F)(F)F)c1,cell number change,,-7.18%
same,AC50,[1],"0.092 µM [falling, full curve, poor fit]"
O=C(O)C(Cc1cnc[nH]1)NS(=O)(=O)c1ccc(Br)cc1 (centres undefined),cell number change,,15%
same,AC50,[1],"9.2 µM [falling, single point]"
NC(N)=N/N=C/c1cn(-c2ccccc2)nc1-c1cccs1,cell number change,,-71.5%
same,AC50,[2],"14.6 µM [falling, partial curve]"
same,AC50,[1],"18.4 µM [falling, partial curve]"
CCC/C=N/O,cell number change,,-3.62%
CN1CCCN(c2ccc([N+](=O)[O-])nc2)CC1,cell number change,,9.68%
same,AC50,[1],"0.58 µM [rising, single point]"
COc1ccc(CN2CCN(C(=O)COc3cccc(C)c3)CC2)c(OC)c1,cell number change,,24.7%
same,AC50,[1],"2.59 µM [rising, partial curve]"
CCCCn1c(O)c(C(C)=Nc2ccc(C(=O)O)cc2)c(=O)[nH]c1=O,cell number change,,-10.9%
same,AC50,[1],"2.31 µM [falling, partial curve, poor fit]"
Cc1ccc(C(=O)c2cc(Br)ccc2N)cc1,cell number change,,-30.5%
N#CC(C#N)=NNc1ccc(-n2ccc(C(F)(F)F)n2)cc1,cell number change,,-13.6%
same,AC50,[2],"0.231 µM [falling, partial curve]"
same,AC50,[1],"7.31 µM [falling, partial curve]"

# 3 entries from above, bar-delimited.
smiles | measurement | setting | value
N#C/C=C/C#N | AC50 | [1] | 18.4 µM [rising, single point]
CCOc1c(Cl)cc(CNCCc2c[nH]c3ccccc23)cc1OC | cell number change |  | -33.3%
same | AC50 | [2] | 25.9 µM [falling, single point]

# — PubChem BioAssay AID2685 (National Center for Advancing Translational Sciences (NCATS), 2010)
